Measured values reported in patent US20250214975A1, “PEPTIDYL FLAVOR MODIFIERS” (Ohio State Innovation Foundation, priority 2022, published 2025).

Experiment: Quantification of the chalkiness compound isomers in brewed coffee by standard addition (MRM)
Conditions: for Concentration HB Coffee: high body (HB) coffee, body score=7.5; for Concentration LB Coffee: low body (LB) coffee, body score=4.8
Source text: In preparation for sensory validation, ((2R,5S)-2-isobutyl-3,8,dioxo-1,4-diazocane-5-carbonyl)-L-tryptophyl-L-histidine was quantified using standard addition in both the high body coffee (body score=7.5), as well as in the lowest body coffee from the original sample set (body score=4.8) (Table 3).

| Substance | Concentration HB Coffee | Concentration LB Coffee |
| --- | --- | --- |
| ((2R,5S)-2-isobutyl-3,8,dioxo-1,4-diazocane-5-carbonyl)-L-tryptophyl-L-histidine [Isomer 1] | 0.366 mg/L | 0.03 mg/L |
| ((2R,5S)-2-isobutyl-3,8,dioxo-1,4-diazocane-5-carbonyl)-L-tryptophyl-L-histidine [Isomer 2] | 0.477 mg/L | 0.03 mg/L |
